Results are given in words; binding and its absence hold for the method and conditions named. For some of these results: Binding seen in cells or lysates may run through a third protein. Some results given as binding are weak or reduced against the parent protein; the word gives no strength.

The chains behind the UniProt entries cited, without tags or fusion partners.
UniProt Q9HBM1: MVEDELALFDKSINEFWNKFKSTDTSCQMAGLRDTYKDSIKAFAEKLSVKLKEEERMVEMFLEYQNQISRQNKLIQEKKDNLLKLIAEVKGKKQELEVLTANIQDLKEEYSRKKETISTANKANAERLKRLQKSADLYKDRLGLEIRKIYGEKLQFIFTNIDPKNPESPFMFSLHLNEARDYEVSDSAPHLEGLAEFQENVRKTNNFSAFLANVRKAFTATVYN
UniProt P35579: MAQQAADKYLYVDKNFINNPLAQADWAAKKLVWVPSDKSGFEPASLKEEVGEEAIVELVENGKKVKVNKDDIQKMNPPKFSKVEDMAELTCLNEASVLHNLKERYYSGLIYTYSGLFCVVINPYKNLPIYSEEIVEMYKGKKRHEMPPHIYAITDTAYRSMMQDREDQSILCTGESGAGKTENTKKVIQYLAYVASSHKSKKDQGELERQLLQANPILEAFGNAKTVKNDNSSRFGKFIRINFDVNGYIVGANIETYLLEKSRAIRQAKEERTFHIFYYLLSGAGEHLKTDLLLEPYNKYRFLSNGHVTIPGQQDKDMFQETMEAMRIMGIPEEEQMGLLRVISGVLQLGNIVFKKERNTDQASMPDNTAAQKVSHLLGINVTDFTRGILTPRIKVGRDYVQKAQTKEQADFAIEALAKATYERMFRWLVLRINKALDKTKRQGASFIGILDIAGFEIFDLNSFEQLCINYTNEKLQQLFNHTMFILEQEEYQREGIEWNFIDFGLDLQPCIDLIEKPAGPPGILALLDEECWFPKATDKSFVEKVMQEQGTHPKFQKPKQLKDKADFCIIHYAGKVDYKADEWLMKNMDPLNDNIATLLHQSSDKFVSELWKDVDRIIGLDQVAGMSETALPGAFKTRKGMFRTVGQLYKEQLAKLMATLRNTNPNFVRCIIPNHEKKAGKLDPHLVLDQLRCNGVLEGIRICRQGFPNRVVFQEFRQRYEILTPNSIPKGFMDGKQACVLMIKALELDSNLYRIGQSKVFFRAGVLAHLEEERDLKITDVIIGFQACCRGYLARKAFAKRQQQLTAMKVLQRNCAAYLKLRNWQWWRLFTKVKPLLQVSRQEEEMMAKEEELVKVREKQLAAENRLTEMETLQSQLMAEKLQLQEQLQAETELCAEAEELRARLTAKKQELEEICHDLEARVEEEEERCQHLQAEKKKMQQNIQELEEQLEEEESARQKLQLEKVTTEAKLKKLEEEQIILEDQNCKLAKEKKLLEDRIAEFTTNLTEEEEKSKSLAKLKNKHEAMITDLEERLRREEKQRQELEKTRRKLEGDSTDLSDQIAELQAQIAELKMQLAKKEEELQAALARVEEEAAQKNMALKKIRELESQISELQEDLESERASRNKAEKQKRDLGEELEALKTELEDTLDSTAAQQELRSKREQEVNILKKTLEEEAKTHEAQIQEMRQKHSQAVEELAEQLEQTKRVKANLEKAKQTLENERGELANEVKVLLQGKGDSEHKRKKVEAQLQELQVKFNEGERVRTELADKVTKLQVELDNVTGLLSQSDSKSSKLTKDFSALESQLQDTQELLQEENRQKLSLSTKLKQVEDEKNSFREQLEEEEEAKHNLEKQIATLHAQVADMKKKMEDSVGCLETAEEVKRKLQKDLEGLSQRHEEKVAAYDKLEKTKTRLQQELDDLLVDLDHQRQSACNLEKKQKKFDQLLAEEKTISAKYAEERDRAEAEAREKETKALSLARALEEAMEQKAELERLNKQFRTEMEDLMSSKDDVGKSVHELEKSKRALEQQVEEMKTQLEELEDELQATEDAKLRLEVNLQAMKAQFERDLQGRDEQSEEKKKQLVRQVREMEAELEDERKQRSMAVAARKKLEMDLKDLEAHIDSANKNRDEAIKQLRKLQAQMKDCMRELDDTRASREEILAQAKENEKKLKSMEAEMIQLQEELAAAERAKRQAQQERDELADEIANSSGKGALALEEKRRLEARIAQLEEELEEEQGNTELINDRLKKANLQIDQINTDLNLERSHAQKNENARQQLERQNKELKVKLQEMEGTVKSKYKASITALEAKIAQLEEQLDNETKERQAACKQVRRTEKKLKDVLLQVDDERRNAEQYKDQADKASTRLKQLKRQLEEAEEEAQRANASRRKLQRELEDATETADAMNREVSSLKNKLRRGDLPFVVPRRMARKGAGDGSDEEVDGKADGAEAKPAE

In publication PMC11653702, “Targeting the SPC25/RIOK1/MYH9 Axis to Overcome Tumor Stemness and Platinum Resistance in Epithelial Ovarian Cancer” (Advanced Science, 2024) one finds binding data, which are given here for six molecules.

Test [1] concerns the target purified SPC25 (UniProt Q9HBM1). The experiment in a line: cross-linking; in vitro crosslinking of purified SPC25, MYH9 and RIOK1 with disuccinimidyl suberate (DSS), rising SPC25 levels, Western blotting with anti-SPC25; both purified.
For test [2] the target is unchanged. The experiment in a line: pull-down; in vitro GST pull-down with two purified proteins from a prokaryotic expression system; both purified.
Test [3] deals with full-length (FL) Flag-tagged SPC25 (UniProt Q9HBM1). Description: co-IP; HEK293FT cells transfected with SPC25-Flag and MYH9-Myc constructs or their truncations; IP with Flag-beads (SPC25 truncations) or Myc-beads (MYH9 truncations).
Test [4] concerns the target spindle pole body component 25 (SPC25), endogenous (human (endogenous in OVCAR8)) (UniProt Q9HBM1). The experiment in a line: co-IP; endogenous SPC25 and MYH9, OVCAR8 cells.
Test [5] deals with full-length (FL) Flag-tagged SPC25 (UniProt Q9HBM1). Description: co-IP; exogenous SPC25 and RIOK1 (Figure S6L); cells and tags not given.
In test [6] the target is purified SPC25 (UniProt Q9HBM1). Description: pull-down; in vitro GST pull-down with two purified proteins from a prokaryotic expression system; both purified. This is another data set of the same source.
Test [7] has as its target spindle pole body component 25 (SPC25), endogenous (human (endogenous in OVCAR8)) (UniProt Q9HBM1). The experiment in a line: co-IP; endogenous RIOK1 with SPC25 or MYH9 in OVCAR8 cells treated with the indicated peptides (CBP1 at 5 µM).
Test [8] has the same target. Description: co-IP; endogenous SPC25 and RIOK1 (Figure S6K); cells not given.
The target is the same in test [9]. The experiment in a line: proximity ligation; PLA of SPC25 and RIOK1 in OVCAR8 cells treated with control peptide or CBP1; foci per cell.

Regarding “purified MYH9 (from UniProt P35579 1-1960)”, the binding result with purified SPC25 [1] and with purified SPC25 [2] was “binds” in each case. For the molecule MYH9-Myc (from UniProt P35579 1-1960), the binding result in test [3] is given as “binds”.

In the case of “MYH9, also called nonmuscle myosin IIA (NMIIA), endogenous (from UniProt P35579 1-1960)”, the binding result in test [4] is on record as “binds”.

B1: exogenous RIOK1 (exogenous protein IP assay) (enzyme, UniProt Q9BRS2 1-568)
chain: MDYRRLLMSRVVPGQFDDADSSDSENRDLKTVKEKDDILFEDLQDNVNENGEGEIEDEEEEGYDDDDDDWDWDEGVGKLAKGYVWNGGSNPQANRQTSDSSSAKMSTPADKVLRKFENKINLDKLNVTDSVINKVTEKSRQKEADMYRIKDKADRATVEQVLDPRTRMILFKMLTRGIITEINGCISTGKEANVYHASTANGESRAIKIYKTSILVFKDRDKYVSGEFRFRHGYCKGNPRKMVKTWAEKEMRNLIRLNTAEIPCPEPIMLRSHVLVMSFIGKDDMPAPLLKNVQLSESKARELYLQVIQYMRRMYQDARLVHADLSEFNMLYHGGGVYIIDVSQSVEHDHPHALEFLRKDCANVNDFFMRHSVAVMTVRELFEFVTDPSITHENMDAYLSKAMEIASQRTKEERSSQDHVDEEVFKRAYIPRTLNEVKNYERDMDIIMKLKEEDMAMNAQQDNILYQTVTGLKKDLSGVQKVPALLENQVEERTCSDSEDIGSSECSDTDSEEQGDHARPKKHTTDPDIDKKERKKMVKEAQREKRKNKIPKHVKKRKEKTAKTKKGK
Regarding B1, in test [5], the binding result is “binds”.

B2: purified RIOK1 (enzyme, UniProt Q9BRS2 1-568)
chain: B1 chain
As for B2, the binding entry with purified SPC25 [1] and in the test with purified SPC25 [6] was “binds” each time.

B3: RIOK1, endogenous (enzyme, UniProt Q9BRS2 1-568)
chain: B1 chain
Consider B3, for which the binding result in test [7], in [8] and in test [9] was “binds” throughout.
